Laboratory results published in PMC5663475, “SAV1 promotes Hippo kinase activation through antagonizing the PP2A phosphatase STRIPAK” (eLife, 2017).
Results are given in words; binding and its absence hold for the method and conditions named. In cells and extracts the contact can be indirect. Binding can be weak; no strength is given.

Protein sequences, listed by entry. Tags and fused reporters are not part of them. Lines headed by an entry give the natural chain unless they say otherwise; changes in a name come on top.
UniProt Q13188: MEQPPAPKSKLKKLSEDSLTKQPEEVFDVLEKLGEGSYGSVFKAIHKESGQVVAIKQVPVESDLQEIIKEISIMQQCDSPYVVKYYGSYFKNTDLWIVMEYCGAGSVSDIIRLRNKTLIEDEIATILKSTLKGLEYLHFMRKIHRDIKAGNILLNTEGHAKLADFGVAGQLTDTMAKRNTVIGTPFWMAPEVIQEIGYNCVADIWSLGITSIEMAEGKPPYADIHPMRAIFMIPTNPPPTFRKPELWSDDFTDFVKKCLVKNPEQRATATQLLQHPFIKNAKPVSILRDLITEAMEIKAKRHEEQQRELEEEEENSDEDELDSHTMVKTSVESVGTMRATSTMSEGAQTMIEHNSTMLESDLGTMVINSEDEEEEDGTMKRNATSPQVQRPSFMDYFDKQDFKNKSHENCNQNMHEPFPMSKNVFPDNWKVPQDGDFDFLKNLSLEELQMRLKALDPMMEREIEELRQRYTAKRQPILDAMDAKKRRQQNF

How the values were obtained:
Test in all cases: co-IP; anti-FLAG IP from lysates of 293FT cells transfected with FLAG-MST2 plasmids; endogenous SLMAP detected by anti-SLMAP blot
[1] = biological target: FLAG-MST2 7TA mutant with T325 restored (human) (UniProt Q13188)
[2] = biological target: FLAG-MST2 7TA mutant with T336 restored (human) (UniProt Q13188)
[3] = biological target: FLAG-MST2 7TA mutant with T378 restored (human) (UniProt Q13188)

Measured: binding

B1: endogenous SLMAP (protein, UniProt Q14BN4 1-828)
chain: MPSALAIFTCRPNSHPFQERHVYLDEPIKIGRSVARCRPAQNNATFDCKVLSRNHALVWFDHKTGKFYLQDTKSSNGTFINSQRLSRGSEESPPCEILSGDIIQFGVDVTENTRKVTHGCIVSTIKLFLPDGMEARLRSDVIHAPLPSPVDKVAANTPSMYSQELFQLSQYLQEALHREQMLEQKLATLQRLLAITQEASDTSWQALIDEDRLLSRLEVMGNQLQACSKNQTEDSLRKELIALQEDKHNYETTAKESLRRVLQEKIEVVRKLSEVERSLSNTEDECTHLKEMNERTQEELRELANKYNGAVNEIKDLSDKLKVAEGKQEEIQQKGQAEKKELQHKIDEMEEKEQELQAKIEALQADNDFTNERLTALQVRLEHLQEKTLKECSSLEHLLSKSGGDCTFIHQFIECQKKLIVEGHLTKAVEETKLSKENQTRAKESDFSDTLSPSKEKSSDDTTDAQMDEQDLNEPLAKVSLLKDDLQGAQSEIEAKQEIQHLRKELIEAQELARTSKQKCFELQALLEEERKAYRNQVEESTKQIQVLQAQLQRLHIDTENLREEKDSEITSTRDELLSARDEILLLHQAAAKVASERDTDIASLQEELKKVRAELERWRKAASEYEKEITSLQNSFQLRCQQCEDQQREEATRLQGELEKLRKEWNALETECHSLKRENVLLSSELQRQEKELHNSQKQSLELTSDLSILQMSRKELENQVGSLKEQHLRDSADLKTLLSKAENQAKDVQKEYEKTQTVLSELKLKFEMTEQEKQSITDELKQCKNNLKLLREKGNNKPWPWMPMLAALVAVTAIVLYVPGLARASP
binds: [1] | [2] | [3]
